Drawing on patent US20210246451, “APTAMER FOR ADAMTS5 AND USE FOR APTAMER FOR ADAMTS5” (RIBOMIC INC., published 2021), this text covers functional effect of the aptamer for two sequences.

The chains behind the UniProt entries cited, without tags or fusion partners. Residues count along the entry.
UniProt Q9UNA0, 262-622: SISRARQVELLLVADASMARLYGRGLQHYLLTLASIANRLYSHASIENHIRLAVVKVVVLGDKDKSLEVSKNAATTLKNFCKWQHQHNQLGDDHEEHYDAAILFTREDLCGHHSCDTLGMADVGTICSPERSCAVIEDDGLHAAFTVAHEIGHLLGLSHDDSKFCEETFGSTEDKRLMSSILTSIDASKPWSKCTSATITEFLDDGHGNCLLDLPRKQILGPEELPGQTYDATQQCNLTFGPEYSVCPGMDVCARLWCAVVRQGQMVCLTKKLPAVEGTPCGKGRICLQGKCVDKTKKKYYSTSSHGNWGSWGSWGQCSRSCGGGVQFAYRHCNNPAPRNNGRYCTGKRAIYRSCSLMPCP

The target of the series is ADAMTS5 (UniProt Q9UNA0). The series is described as follows: inhibition of the protein. Particulars: 2'-F pyrimidines; 30 nM; purified recombinant protein; protein details: R&D Systems; variant of SEQ ID NO: 4; counted as no effect.

Take “GGCUUGGGGCCUCACAGCUGCUCAGCUUGACUAAACCAAGCC [SEQ ID NO: 8]”: the functional effect of the aptamer was -8.6 % inhibition.
Regarding “GGCUUGGGGCCUCCACAGCUGCUCAGCUUGGACUAACCAAGCC [SEQ ID NO: 7]”, the functional effect of the aptamer was -2.3 % inhibition.
